# From article PMC9684134, “In vitro biochemical assessment of mixture effects of two endocrine disruptors on INS-1 cells” (Scientific Reports, 2022)
# Read-outs that look alike come from different tables or passages of the source.
# Tested on: INS-1 cells
# Experiment: Glucose-galactose cytotoxicity assay (MTT)
# Description: Sub-culturing was in ratio 4:3. Cell density was 15,000 cells/well and treated with 200 µL of the test solution that was solubilized in glucose-free RPMI medium supplemented with 5 mM glucose or 5 mM galactose. The cells were incubated further for 48 h. The spent medium was replaced with 100 µL glucose in RPMI medium. 2,4-dinitrophenol served as positive control. The cells were finally loaded with MTT as in section “Cell viability assay” but incubation took 120 min.
# [1] = ratio greater than 1 indicative of potential mitochondrial toxicity
smiles,measurement,setting,value
"O=[N+]([O-])c1ccc(O)c([N+](=O)[O-])c1 [2,4-Dinitrophenol, 2,4-dinitrophenol, reference compound]",Glu- IC50/Gal- IC50 (fold value),[1],1.88
CC(C)(C)CC(C)(C)c1ccc(O)cc1 [4-tert-Octylphenol],Glu- IC50/Gal- IC50 (fold value),[1],0.97
same,Glu- IC50/Gal- IC50 (fold value),"ratio greater than 1 indicative of potential mitochondrial toxicity, listed as 4-tOP",less than 1
Oc1cc(Cl)ccc1Oc1ccc(Cl)cc1Cl [Triclosan],Glu- IC50/Gal- IC50 (fold value),,1.42
